Laboratory results from doi:10.1101/2020.06.24.169326.

What was measured:
[1] = biological target: Deinococcus radiodurans topoisomerase IB fused to the T25 domain of CyaA (pKNTtopoIB) (Deinococcus radiodurans) (UniProt Q9RWH8); experiment: two-hybrid
[2] = biological target: Deinococcus radiodurans topoisomerase IB fused to the T18 domain of CyaA (pUTtopoIB) (Deinococcus radiodurans) (UniProt Q9RWH8); experiment: two-hybrid

B1: ParB1 with T18 tag, expressed in E. coli (protein, UniProt Q9RYD8 1-288)
chain: MSKKSSLGRGLDALLTKKGEPVAQAGTGTQVQTLKIERIAQAAYQPRQVFEPESLAELAQSIREKGVLQPLLVRPRGDAFEIVAGERRWRASQLAGLTELPVMIRDLGDREALEIAIVENLQREDLGPLEEARAYQALLDQGLNQEGVAQAVGKGRSTVTNALRLLTLPEPVLRALDEGSISASHARAVLTQPEADRLWAFEQIRSRGLNVREAEALKRERGGRDKGQGAPIKVNPPRAYRQLELDLSRRTGTRVKITGEDKGRVELNYGSREELDRILQILGYEAEE
How did the binding [1] turn out when B1 was run?
Its binding is “binds”.

B2: ParB2 with T18 tag, expressed in E. coli (protein, UniProt Q9RZE7 1-293)
chain: MTRRRPERRRDLLGLLGETPVDLSQANDIRALPVNELKVGSTQPRRSFDLERLSELAESIRAHGVLQPLLVRSVDGQYEIVAGERRWRAAQLAGLAEVPVVVRQLSNEQARAAALIENLQRDNLNVIDEVDGKLELIALTLGLEREEARKRLMQLLRAVPGDEHEQLDQVFRSMGETWRTFAKNKLRILNWPQPVLEALRAGLPLTLGSVVASAPPERQAELLKLAQNGASRSQLLQALQTPSQTSAVTPEHFAKVLSSKRFLSGLDTPTREALDRWLARMPERVRQAIDEQS
With B2 as the binder, how does the binding [1] read?
Its binding is “binds”.

B3: DNA replication initiation protein DnaA fused to the T25 domain of CyaA (pKNTDA) (protein, UniProt Q9RYE7 1-466)
chain: MSQEIWADVLAYVRKNVSDLEYTTWFAPVKPLGVQEGSLLLGVRNSFTKDWFRDHYLELLLAALRSLGAEHPQVEFQVLPAAQDALLLPNDPPPAPEAAAPTPKTKAAPTPPPSTPGDNRKTLNPKYTFENFVVGPNNNLAHAAALAVAESPGKAYNPLFIYGDVGLGKTHLMHAVGHYLAERFPEKRIEYVSTETFTNELINAIRDDKTTQFRNRYRSVDLLLVDDIQFLAGKERTQEEFFHTFNALYESNKQIILSSDRPPKDIQTLEGRLRSRFEWGLITDIQSPEYETRVAILKMNAEQGHITIPQEVLELIARQVTSNIRELEGALMRVVAFASLNNVPFSRAAAAKALSNVFAPQEAKVEMTDVLRQVAAHYGTTPDLIRGSGRARDIVVPRQVAQYLIRALTDHSLPEIGQFFGRDHSTVMHAVSKITEQMGKDPELAATVNTLRNRIQGKEEEEEVGA
For B3, which binding [2] is on record?
Its binding is “binds”.

Results are given in words; binding and its absence hold for the method and conditions named. Binding can be weak; no strength is given. Where a sequence is shown, tags or fusion partners need not be part of it.
